Measurements published in US9598677B2, “Use of human biliverdin reductase and fragments thereof for the treatment of protein kinase C-delta and ERK related conditions” (University of Rochester, priority 2009, dated 2017).
Part of at least one peptide drawing is inferred or uncertain, most often the ends. For part of these data: For at least one compound, name, drawing or mass did not settle the structure. Peptide text beside a SMILES is read from it.

The chains behind the UniProt entries cited, without tags or fusion partners. Where a name states a change or a piece, a line headed by the entry shows the natural chain unless it says otherwise.
UniProt Q05655: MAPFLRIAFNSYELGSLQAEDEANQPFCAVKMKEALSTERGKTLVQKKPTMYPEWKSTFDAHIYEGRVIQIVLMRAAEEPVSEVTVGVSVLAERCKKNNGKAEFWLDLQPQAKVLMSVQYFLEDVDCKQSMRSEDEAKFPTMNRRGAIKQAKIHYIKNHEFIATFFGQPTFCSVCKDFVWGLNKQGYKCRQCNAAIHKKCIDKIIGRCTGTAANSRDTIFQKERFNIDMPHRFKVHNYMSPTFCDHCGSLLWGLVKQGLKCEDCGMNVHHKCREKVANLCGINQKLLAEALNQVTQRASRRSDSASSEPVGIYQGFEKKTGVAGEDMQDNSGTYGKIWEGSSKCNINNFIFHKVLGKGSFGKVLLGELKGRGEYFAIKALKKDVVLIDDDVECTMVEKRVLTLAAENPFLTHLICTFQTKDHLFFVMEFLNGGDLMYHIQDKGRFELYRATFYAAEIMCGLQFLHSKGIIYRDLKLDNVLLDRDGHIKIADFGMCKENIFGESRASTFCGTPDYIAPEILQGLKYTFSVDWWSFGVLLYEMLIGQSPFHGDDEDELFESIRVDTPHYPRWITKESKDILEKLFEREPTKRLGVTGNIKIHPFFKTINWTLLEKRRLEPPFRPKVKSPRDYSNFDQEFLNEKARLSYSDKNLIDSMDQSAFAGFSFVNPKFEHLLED

How the values were obtained:
PKC-δ = PKC-δ (Homo sapiens, UniProt Q05655); experiment: PKC-δ activity assay in situ in 293A cells; format: cell-based; set-up: The human PKC-δ open reading frame was also cloned in the same vectors; expressed in transfected cells; host or cells: HEK 293A
Procedure: The PKC-δ activity assay in situ was performed by a modification of procedures detailed by Williams and Schrier (Williams et al., Glucose-Induced Protein Kinase C Activity Regulates Arachidonic Acid Release and Eicosanoid Production by Cultured Glomerular Mesangial Cells,” J. Clin. Invest. 92:2889-2896 (1993), which is hereby incorporated by reference in its entirety). Cells were seeded into 48-well plates and transfected with 0.1 μg/well pcDNA3-hBVR. After 24 h, the medium was replaced with a starvation medium (0.1% serum) and incubation continued for another 24 h to synchronize cells. In some wells, PKC inhibitor Rottlerin (20 μM) was added 30 min before addition of PMA (100 nM) for 15 min. In some wells, hBVR-derived peptides were introduced to cells in their myristoylated form. Cells were washed with medium and incubated for 10 min at 30° C. in 50 μl of kinase assay buffer (137 mM NaCl, 5.4 mM KCl, 10 mM MgCl2, 0.3 mM Na2HPO4, 0.4 mM KH2PO4, 25 mM β-glycerophosphate, 5.5 mM D-glucose, 5 mM EGTA, 1 mM CaCl2, 20 mM HEPES (pH 7.2), 50 μg/ml digitonin, 120 μg/ml of PKC-δ specific substrate (ARRKRKGSFFGG; SEQ ID NO: 52) and 100 μM ATP labeled with 10 μCi/ml [γ-^32P]-ATP). The reaction was stopped with the addition of 25 μl of ice-cold 30% (wt/vol) TCA. The TCA-soluble fraction samples were transferred to p81 phospho-cellulose filters. […]

recombinant human PKC-δ = experiment: PKC-δ kinase assay in vitro (p81 filter / autoradiography); format: biochemical; settings: increasing peptide concentrations, fitted to Michaelis-Menten equation, FIG. 4B; read-out: Km of peptide as substrate for PKC-δ
Procedure: Measurement of PKC-δ activity: In vitro kinase activity assays were performed with active recombinant human PKC-δ kinase (as a GST fusion protein). PKC-δ assay in vitro was performed using 5 ng purified enzyme in a 50 μl assay containing 50 mM HEPES pH 7.4, 10 mM MgCl2, 0.2 mM DTT, sonicated lipid activators (0.5 μg phosphatidylserine and 0.05 μg diacylglycerol) or lipid activators plus PMA (as indicated in appropriate experiments) and PKC-δ substrates. The reaction was started by the addition of 50 μM ATP labeled with 5 μCi [γ-^32P]-ATP. Incubation was performed for 15 min at 30° C., unless otherwise stated. […]
When hBVR or its mutants were assayed as the sole substrates for PKC, the incubation conditions were as described above and the incubation was for 40 min at 30° C. unless specified otherwise. The reaction was terminated by the addition of Laemmli buffer, and the reaction products were detected by SDS-PAGE, transfer to PVDF membrane, and autoradiography.
Measurement of PKC-δ activity: PKC-δ assay in vitro was performed using 0.1 ng/μl purified recombinant human PKC-δ kinase with reaction conditions specified by the manufacturer. […] Reaction products were detected either by gel electrophoresis and autoradiography or by the p81 filter assay. PKC-δ activity on agarose beads was also measured. […]

PKC-δ kinase activity in cells, commercial substrate (PKC-δ; 40 μM, 1 h before PMA, PMA-activated and untreated cells, FIG. 6B) | phosphorylation of peptide as substrate in situ (PKC-δ; cells overexpressing PKC-δ, PMA-activated, equimolar to commercial peptide, FIG. 4A) | Km (recombinant human PKC-δ) | Structure (SMILES)
effective inhibitor |  |  | C=CC1=C(C)/C(=C/c2[nH]c(Cc3[nH]c(/C=C4\NC(=O)C(C)=C4C=C)c(C)c3CCC(=O)O)c(CCC(=O)O)c2C)NC1=O [Bilirubin, reference compound]
 | superior substrate | 1.59 ± 0.58 µM | CC(C)C[C@H](NC(=O)CN)C(=O)N[C@@H](CCCCN)C(=O)N[C@@H](CCCNC(=N)N)C(=O)N[C@@H](CC(N)=O)C(=O)N[C@@H](CCCNC(=N)N)C(=O)N[C@@H](Cc1ccc(O)cc1)C(=O)N[C@@H](CC(C)C)C(=O)N[C@@H](CO)C(=O)N[C@@H](Cc1ccccc1)C(=O)N[C@@H](Cc1c[nH]cn1)C(=O)N[C@@H](Cc1ccccc1)C(=O)N[C@@H](CCCCN)C(=O)O [GLKRNRYLSFHFK] (H-GLKRNRYLSFHFK-OH)
